Laboratory results: patent US20200165653A1, “METHOD OF MEASURING FLUID SECRETION FUNCTION OF EPITHELIAL CELLS” (NATIONAL UNIVERSITY CORPORATION TOKYO MEDICAL AND DENTAL …, priority 2017, published 2020)
At least one compound was matched to its structure with a doubt left. Residues, ends and D or L forms follow the SMILES beside them.

System: human intestinal organoids
Assay: Organoid swelling observed by phase contrast / time-lapse imaging
Type: cell-based
Details: PGE2 10^−8 M, VIP 10^−7 M, ACh 10^−3 M, histamine 10^−3 M, bradykinin 10^−5 M, serotonin 10^−3 M; up to 60 min after induction
Method: The phase contrast images illustrated are prior to swelling induction and 60 minutes after swelling induction. Scale-bar: 100 μm. Induction was by the addition to a culture medium of: PGE2 (10^−8 M, (A)), VIP (10^−7 M, (B)), ACh (10^−3 M, (C)), histamine (10^−3 M, (D)), bradykinin (10^−5 M, (E)), and serotonin (10^−3 M, (F)).
Examination of Endogenous Mediator Candidates for Anion/Fluid Secretion Next, the fluid secretion function measurement method of the present embodiment was employed to examine the direct effect of various endogenous mediators that might possibly induce anion/fluid secretion from intestinal epithelial cells by testing six types of endogenous mediators to determine if they had the capability to induce a swelling response in organoids equivalent to that of forskolin-induced swelling.

## NC(N)=NCCC[C@H](NC(=O)[C@H](Cc1ccccc1)NC(=O)[C@@H]1CCCN1C(=O)[C@H](CO)NC(=O)[C@H](Cc1ccccc1)NC(=O)CNC(=O)[C@@H]1CCCN1C(=O)[C@@H]1CCCN1C(=O)[C@@H](N)CCCN=C(N)N)C(=O)O [bradykinin] (H-RPPGFSPFR-OH)
  swelling response induced by endogenous mediator: did not exhibit a clear effect
